From patent US20250129370A1, “METHOD FOR REDUCING HEPATIC TRIGLYCERIDES” (ADAERATA, LIMITED PARTNERSHIP, priority 2022, published 2025)
Results are given in words; binding and its absence hold for the method and conditions named. In cells and extracts the contact can be indirect. Some results given as binding are weak or reduced against the parent protein; the word gives no strength. Where a sequence is shown, tags or fusion partners need not be part of it.

Chains of the proteins cited; added tags and fusions are not shown. Residues count along the entry.
UniProt P04114, residues 28-4563: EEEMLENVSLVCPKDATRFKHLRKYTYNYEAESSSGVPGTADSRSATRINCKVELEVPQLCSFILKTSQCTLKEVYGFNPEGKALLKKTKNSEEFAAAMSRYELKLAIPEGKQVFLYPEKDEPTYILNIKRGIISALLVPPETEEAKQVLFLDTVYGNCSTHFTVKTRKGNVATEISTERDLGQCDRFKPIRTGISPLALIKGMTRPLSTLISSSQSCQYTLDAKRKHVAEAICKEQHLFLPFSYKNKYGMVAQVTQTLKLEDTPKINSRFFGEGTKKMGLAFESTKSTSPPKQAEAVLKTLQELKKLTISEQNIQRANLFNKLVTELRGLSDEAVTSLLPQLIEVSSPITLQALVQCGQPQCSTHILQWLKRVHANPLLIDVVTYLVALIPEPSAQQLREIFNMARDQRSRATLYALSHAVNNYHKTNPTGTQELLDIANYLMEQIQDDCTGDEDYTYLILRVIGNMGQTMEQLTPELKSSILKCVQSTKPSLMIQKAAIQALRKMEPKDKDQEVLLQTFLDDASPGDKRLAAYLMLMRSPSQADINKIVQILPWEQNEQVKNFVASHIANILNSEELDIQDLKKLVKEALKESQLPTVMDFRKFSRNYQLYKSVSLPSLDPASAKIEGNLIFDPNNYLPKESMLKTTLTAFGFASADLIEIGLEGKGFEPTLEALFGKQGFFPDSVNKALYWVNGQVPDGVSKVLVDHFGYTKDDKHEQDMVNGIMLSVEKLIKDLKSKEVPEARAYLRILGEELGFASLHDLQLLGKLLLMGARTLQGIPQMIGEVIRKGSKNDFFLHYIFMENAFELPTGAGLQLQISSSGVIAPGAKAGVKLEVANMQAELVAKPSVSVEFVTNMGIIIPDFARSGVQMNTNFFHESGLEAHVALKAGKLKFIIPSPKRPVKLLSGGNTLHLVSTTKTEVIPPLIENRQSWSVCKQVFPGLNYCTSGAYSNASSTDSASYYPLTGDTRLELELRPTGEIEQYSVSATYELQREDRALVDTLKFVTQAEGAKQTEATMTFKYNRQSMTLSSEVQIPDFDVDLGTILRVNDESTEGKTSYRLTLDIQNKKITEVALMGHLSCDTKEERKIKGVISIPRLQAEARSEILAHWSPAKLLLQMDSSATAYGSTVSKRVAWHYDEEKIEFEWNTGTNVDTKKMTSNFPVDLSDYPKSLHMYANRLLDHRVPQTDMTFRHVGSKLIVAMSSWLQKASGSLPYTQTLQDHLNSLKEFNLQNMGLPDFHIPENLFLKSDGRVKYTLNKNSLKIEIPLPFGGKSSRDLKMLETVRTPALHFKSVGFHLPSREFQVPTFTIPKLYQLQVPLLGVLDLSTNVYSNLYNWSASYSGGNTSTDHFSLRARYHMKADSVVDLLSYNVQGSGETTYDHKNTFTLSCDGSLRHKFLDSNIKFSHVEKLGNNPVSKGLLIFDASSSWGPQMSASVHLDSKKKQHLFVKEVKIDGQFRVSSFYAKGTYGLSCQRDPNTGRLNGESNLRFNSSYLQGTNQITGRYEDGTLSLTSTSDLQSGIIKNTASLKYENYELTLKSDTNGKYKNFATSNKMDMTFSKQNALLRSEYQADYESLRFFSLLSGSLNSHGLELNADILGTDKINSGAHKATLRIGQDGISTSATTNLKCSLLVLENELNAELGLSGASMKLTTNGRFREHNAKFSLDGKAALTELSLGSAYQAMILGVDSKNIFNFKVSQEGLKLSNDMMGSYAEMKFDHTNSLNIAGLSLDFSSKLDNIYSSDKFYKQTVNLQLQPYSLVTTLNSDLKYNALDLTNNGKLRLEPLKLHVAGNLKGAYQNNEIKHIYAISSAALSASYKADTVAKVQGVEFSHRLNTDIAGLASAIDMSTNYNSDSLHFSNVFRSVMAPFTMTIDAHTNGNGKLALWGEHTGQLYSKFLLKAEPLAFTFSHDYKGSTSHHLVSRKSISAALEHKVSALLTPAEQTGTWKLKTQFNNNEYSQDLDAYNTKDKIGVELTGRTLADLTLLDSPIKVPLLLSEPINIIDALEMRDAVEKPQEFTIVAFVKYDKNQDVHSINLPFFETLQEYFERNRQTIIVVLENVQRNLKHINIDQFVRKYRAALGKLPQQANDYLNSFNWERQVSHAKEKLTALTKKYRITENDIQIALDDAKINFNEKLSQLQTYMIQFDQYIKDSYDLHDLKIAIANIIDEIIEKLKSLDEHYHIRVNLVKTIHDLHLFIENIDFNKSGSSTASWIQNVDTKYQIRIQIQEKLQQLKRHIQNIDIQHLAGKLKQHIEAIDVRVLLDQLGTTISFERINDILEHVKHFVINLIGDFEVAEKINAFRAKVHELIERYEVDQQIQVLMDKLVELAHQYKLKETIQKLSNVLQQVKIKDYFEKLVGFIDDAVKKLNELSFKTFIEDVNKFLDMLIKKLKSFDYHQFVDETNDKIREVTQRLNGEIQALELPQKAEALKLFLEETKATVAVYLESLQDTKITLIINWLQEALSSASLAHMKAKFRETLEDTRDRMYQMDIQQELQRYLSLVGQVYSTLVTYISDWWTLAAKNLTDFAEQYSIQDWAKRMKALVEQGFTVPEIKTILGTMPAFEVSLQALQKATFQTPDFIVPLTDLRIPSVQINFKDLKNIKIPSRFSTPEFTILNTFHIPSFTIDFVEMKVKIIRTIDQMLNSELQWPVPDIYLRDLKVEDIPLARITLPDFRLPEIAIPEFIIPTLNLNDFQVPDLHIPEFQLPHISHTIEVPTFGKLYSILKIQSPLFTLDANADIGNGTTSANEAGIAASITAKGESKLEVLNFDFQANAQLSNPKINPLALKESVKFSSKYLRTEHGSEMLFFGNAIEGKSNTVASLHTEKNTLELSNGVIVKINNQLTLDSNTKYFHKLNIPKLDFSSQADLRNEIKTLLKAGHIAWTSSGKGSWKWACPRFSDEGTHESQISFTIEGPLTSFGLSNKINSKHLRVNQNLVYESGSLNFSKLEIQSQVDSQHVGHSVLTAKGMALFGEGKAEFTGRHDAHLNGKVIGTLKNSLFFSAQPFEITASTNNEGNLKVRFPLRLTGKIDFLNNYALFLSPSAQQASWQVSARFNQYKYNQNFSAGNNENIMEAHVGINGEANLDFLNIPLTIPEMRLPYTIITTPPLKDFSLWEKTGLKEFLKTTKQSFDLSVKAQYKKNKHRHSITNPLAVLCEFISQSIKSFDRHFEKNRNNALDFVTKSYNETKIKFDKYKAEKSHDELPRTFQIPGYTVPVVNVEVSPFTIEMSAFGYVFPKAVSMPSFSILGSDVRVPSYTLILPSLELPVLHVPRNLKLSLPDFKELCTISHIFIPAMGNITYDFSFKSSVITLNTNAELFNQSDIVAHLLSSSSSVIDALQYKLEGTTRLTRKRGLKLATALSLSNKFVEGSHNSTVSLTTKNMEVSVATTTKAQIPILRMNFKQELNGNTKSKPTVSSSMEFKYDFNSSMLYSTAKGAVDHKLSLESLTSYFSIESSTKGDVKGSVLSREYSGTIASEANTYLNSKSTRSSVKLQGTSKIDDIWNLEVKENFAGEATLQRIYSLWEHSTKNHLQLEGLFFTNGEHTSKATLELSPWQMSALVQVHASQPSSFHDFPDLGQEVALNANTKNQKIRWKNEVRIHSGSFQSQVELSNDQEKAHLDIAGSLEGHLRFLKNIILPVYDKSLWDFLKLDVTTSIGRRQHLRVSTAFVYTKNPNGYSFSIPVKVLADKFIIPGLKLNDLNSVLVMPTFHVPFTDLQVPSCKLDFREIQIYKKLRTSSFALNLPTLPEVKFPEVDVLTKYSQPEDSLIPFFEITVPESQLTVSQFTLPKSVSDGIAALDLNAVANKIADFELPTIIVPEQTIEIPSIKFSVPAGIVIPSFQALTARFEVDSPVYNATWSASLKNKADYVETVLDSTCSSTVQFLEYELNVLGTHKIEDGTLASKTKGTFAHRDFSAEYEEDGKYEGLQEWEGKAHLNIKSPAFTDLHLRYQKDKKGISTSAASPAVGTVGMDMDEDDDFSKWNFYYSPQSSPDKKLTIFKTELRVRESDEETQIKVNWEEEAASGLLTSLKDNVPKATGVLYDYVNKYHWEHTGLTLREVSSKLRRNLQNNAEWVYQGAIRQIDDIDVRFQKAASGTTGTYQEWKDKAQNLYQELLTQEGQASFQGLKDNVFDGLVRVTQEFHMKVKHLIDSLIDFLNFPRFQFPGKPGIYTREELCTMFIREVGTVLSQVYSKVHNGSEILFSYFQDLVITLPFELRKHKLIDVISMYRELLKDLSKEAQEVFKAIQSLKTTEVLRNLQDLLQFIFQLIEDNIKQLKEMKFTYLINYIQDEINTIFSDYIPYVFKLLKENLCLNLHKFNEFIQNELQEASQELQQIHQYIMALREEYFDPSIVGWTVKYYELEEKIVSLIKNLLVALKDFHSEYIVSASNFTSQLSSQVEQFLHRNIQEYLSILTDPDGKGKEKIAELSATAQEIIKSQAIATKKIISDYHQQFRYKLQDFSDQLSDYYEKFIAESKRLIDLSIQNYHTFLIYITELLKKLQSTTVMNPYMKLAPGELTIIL

What was measured:
[1] = biological target: T1, endogenous apoB100 of IHH cells (human, UniProt P04114 28-4563); assay: summary of the co-immunoprecipitation and co-expression experiments of Example 2
T1 construct: Endogenous protein in lysates of human IHH cells; also called apolipoprotein B

[2] = biological target: T1, endogenous apoB100 of IHH cells; assay: co-immunoprecipitation: IHH cell lysates immunoprecipitated with mAb-V5, Western blot with an apoB100 antibody (FIG. 7H)
[3] = biological target: T1, endogenous apoB100 of IHH cells; assay: co-immunoprecipitation: IHH cell lysates immunoprecipitated with a human ApoB antibody, Western blot for the V5 tag (FIG. 7I)
[4] = biological target: T1, endogenous apoB100 of IHH cells; assay: co-immunoprecipitation with a human ApoB antibody, Western blot for the V5 tag (legend of FIG. 7I)

Measured: binding

B1: human PC7 tagged with V5 at the C-terminus (enzyme, not shown: small tags and cut ends)
chain: SVHFNDPKYPQQWHLNNRRSPGRDINVTGVWERNVTGRGVTVVVVDDGVEHTIQDIAPNYSPEGSYDLNSNDPDPMPHPDVENGNHHGTRCAGEIAAVPNNSFCAVGVAYGSRIAGIRVLDGPLTDSMEAVAFNKHYQINDIYSCSWGPDDDGKTVDGPHQLGKAALQHGVIAGRQGFGSIFVVASGNGGQHNDNCNYDGYANSIYTVTIGAVDEEGRMPFYAEECASMLAVTFSGGDKMLRSIVTTDWDLQKGTGCTEGHTGTSAAAPLAAGMIALMLQVRPCLTWRDVQHIIVFTATRYEDRRAEWVTNEAGFSHSHQHGFGLLNAWRLVNAAKIWTSVPYLASYVSPVLKENKAIPQSPRSLEVLWNVSRMDLEMSGLKTLEHVAVTVSITHPRRGSLELKLFCPSGMMSLIGAPRSMDSDPNGFNDWTFSTVRCWGERARGTYRLVIRDVGDESFQVGILRQWQLTLYGSVWSAVDIRDRQRLLESAMSGKYLHDDFALPCPPGLKIPEEDGYTITPNTLKTLVLVGCFTVFWTVYYMLEVYLSQRNVASNQVCRSGPCHWPHRSRKAKEEGTELESVPLCSSKDPDEVETESRGPPTTSDLLAPDLLEQGDWSLSQNKSALDCPHQHLDVPHGKEEQIC
binds: all assays above
